Binding data for 1 substance are collected here from article PMC10865846.

The test deals with Strep-NSP8 (SARS-CoV-2 non-structural protein 8) (SARS-CoV-2) (UniProt P0DTD1). In words: affinity purification with mass spectrometry.

Results are given in words; binding and its absence hold for the method and conditions named. In cells and extracts the contact can be indirect. A yes stands for co-enrichment or nearness to the bait. Other partners may have been found.

As for “proteasome 26S subunit, ATPase 4 (PSMC4) (from UniProt P43686 1-418)”, the binding result was “binds”.
